From patent US20230120167A1 (AFFILOGIC, published 2023)
Results are given in words; binding and its absence hold for the method and conditions named. Some results given as binding are weak or reduced against the parent protein; the word gives no strength.

Chains of the proteins cited; added tags and fusions are not shown. Lines headed by an entry give the natural chain unless they say otherwise; changes in a name come on top.
UniProt Q9NZQ7: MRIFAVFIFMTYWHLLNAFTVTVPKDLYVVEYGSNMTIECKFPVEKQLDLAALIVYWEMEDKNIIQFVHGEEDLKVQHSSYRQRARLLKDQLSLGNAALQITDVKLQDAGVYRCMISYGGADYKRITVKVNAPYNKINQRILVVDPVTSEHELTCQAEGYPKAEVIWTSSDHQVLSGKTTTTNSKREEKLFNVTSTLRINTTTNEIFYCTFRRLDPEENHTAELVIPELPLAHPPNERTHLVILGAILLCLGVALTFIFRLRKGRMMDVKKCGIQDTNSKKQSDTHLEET
UniProt Q9EP73: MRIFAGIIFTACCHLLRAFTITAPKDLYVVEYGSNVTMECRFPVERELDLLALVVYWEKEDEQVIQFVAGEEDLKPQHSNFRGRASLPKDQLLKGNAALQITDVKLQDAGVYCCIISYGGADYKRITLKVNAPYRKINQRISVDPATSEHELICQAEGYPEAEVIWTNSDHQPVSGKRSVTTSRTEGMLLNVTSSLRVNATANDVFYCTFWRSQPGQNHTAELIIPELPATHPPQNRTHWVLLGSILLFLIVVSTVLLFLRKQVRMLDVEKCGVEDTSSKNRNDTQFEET

Legend:
human PD-L1 [1] = target: T1, human PD-L1 (human, UniProt Q9NZQ7 19-238, limits assumed); assay: sensorgram, response in nm against time in sec, titled 'Sample ID: B11 - by Loading Sample ID' (PD-L1 Human loaded, B11 as the sample); concentration of B11 not given
T1 construct: also called PD-1 ligand 1; CD274

human PD-L1 [2] = target: T1, human PD-L1; assay: inhibition of PD1/PD-L1 binding read as OD 450 nm against log concentration '[NF] ou [Ab]' (fits the competition ELISA of paragraph 396: human PD1 on the plate, biotinylated human PDL1); blocked partner: human PD-1
mouse PD-L1 = target: T2, mouse PD-L1 (mouse, UniProt Q9EP73 19-238, limits assumed); assay: sensorgram, response in nm against time in sec, titled 'Sample ID: B11 - by Loading Sample ID' (PD-L1 Mouse loaded, B11 as the sample); concentration of B11 not given
T2 construct: also called murine PDL1

Measured: binding

B1: B11 (Sac7d variant binding to PD-L1, SEQ ID NO: 21) (designed binder)
chain: MVKVKFVIGGEEKEVDTSKIKTVRRIGKYVLFKYDDNGKTGMGLVSEKDAPKELLDMLARAEREKK
notes: also called NF2; NF-B11
binds: all assays above
